The exact form of at least one protein or probe is not confirmed. A weaker result is weaker than the reference pair of the same experiment. Where a protein sequence is shown, tags need not be part of it.

Amino acid sequences for entries named in this document (tags omitted). A change or cut given only in a name is not applied to a line headed by its entry.
UniProt Q16236: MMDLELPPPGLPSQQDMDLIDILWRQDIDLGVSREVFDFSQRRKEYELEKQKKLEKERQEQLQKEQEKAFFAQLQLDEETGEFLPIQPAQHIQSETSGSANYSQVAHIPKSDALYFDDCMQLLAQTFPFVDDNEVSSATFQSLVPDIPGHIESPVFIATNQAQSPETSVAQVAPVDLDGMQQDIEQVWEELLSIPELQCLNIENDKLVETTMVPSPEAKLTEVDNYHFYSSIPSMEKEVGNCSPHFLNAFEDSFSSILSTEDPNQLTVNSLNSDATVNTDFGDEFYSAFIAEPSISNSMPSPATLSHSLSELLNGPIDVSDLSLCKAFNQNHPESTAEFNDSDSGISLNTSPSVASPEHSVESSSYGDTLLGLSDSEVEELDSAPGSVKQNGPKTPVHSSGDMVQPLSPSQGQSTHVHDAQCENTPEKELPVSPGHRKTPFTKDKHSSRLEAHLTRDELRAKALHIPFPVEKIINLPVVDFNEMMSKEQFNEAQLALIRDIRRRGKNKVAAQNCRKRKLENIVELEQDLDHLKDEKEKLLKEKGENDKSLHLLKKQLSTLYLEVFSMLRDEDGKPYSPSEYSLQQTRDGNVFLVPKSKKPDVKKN

The data set deals with T1, Nrf2 long fragment, wild type (Homo sapiens) (UniProt Q16236).
T1 sequence: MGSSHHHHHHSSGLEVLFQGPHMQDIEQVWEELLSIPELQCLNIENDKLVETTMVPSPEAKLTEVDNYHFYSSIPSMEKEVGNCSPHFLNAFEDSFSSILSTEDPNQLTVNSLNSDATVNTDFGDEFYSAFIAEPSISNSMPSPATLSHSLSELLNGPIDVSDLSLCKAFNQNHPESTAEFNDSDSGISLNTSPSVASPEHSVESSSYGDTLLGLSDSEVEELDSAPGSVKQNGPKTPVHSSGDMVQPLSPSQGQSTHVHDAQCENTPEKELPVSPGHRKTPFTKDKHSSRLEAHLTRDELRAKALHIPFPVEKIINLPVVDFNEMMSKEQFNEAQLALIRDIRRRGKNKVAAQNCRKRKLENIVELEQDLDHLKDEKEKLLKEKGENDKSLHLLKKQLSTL
As to the kind of experiment: EMSA. The settings on record: no MafG, shifted band at 256 nM Nrf2, possibly homodimer; EMSA: 20 mM Tris-HCl pH 7.2, 150 mM KCl, 10 mM DTT, 8 mg/ml BSA, 0.005% Tween 20, 50 ng/ml poly(dI-dC), 2.5% Ficoll; probe ~1.6 pM; 16 h (30 min for Jun-Fos); recombinant protein; protein details: N-terminal His6 (not removed); label: 32P 5' end. In general terms: In EMSA bound probe runs differently from free probe, usually more slowly.

As to “CCGCAGTCACAGTGACTCAGCAGAATCTGA / CTCAGATTCTGCTGAGTCACTGTGACTGCG [EMSA CsMBE probe]”, the binding result is on record as “binds more weakly”.
